Data: the M2OR odorant receptor database
The list shows a part of the results, in another mix than the full data. Calls are pooled over several reports, among them a noisy single-well screen. The list shows a part of the results.

By UniProt entry, the sequences of proteins in these tests, tags left out. Chains listed by the source or under a name are the forms on record and can include a tag or linker.
UniProt Q8VG28, as listed by the source: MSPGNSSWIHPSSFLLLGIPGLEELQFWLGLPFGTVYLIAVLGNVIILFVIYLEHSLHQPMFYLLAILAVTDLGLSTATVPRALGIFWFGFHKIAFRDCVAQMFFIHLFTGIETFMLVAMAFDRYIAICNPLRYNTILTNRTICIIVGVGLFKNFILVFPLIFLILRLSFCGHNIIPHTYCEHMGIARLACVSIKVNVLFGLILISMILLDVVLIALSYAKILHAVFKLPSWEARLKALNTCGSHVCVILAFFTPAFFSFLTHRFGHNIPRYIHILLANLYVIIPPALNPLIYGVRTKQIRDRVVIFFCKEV
UniProt Q8VGE3, as listed by the source: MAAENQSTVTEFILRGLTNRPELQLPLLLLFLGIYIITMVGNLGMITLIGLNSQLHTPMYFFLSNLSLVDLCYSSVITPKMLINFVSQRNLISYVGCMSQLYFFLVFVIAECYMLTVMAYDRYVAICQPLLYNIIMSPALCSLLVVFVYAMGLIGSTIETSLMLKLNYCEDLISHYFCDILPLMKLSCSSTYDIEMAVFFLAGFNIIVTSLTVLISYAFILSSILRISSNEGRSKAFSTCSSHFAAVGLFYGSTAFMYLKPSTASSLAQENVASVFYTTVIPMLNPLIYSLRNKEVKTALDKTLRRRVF
UniProt Q8VGK6, as listed by the source: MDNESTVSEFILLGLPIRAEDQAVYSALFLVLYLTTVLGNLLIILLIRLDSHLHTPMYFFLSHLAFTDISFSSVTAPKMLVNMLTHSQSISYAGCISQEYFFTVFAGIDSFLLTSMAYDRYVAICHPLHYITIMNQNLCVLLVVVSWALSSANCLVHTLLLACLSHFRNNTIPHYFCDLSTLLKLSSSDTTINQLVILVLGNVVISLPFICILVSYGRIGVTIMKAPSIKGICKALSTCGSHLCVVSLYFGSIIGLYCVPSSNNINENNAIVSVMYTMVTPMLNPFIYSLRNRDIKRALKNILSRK

Key:
Conditions in all cases: stereoisomer not certain
[1] = target: T1, UniProt Q8VG53
T1 sequence (whole entry): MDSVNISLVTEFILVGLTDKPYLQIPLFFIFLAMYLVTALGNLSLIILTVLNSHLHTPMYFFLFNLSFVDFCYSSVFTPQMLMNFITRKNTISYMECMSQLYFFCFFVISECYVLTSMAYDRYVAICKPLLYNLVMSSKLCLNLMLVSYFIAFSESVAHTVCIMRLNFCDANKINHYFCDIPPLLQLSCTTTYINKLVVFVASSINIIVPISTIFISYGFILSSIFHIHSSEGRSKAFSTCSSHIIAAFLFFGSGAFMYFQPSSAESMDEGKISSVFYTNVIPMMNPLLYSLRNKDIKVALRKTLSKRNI
In short: (§1)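 Each entry records the cell line, G-protein, co-transfected protein and tags used. Methods varied with the source, often transient luciferase assays in mammalian cell lines. A receptor–molecule pair is called responsive (active) if the original authors judged its signal statistically different from baseline and non-responsive (inactive) otherwise.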

[2] = target: T2, UniProt Q8VG64
T2 sequence (whole entry): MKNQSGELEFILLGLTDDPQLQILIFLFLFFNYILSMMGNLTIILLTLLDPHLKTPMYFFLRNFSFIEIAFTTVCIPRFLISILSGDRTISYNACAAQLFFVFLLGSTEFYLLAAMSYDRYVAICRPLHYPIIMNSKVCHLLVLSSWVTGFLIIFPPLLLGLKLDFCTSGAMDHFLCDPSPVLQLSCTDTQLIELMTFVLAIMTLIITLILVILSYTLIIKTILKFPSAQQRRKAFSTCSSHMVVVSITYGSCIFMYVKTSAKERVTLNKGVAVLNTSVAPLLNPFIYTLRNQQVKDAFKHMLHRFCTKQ
In short: as §1

[3] = target: T3, UniProt Q8VGB9
T3 sequence (whole entry): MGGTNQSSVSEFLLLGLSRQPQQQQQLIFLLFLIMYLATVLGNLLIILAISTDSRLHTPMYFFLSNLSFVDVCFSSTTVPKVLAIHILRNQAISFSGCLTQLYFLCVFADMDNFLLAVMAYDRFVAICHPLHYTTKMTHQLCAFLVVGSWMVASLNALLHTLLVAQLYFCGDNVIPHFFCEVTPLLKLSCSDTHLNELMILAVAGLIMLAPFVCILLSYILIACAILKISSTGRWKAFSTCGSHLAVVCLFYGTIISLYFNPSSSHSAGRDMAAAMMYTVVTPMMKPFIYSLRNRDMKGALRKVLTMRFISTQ
In short: as §1

[4] = target: T4, UniProt Q8VGC6
T4 sequence (whole entry): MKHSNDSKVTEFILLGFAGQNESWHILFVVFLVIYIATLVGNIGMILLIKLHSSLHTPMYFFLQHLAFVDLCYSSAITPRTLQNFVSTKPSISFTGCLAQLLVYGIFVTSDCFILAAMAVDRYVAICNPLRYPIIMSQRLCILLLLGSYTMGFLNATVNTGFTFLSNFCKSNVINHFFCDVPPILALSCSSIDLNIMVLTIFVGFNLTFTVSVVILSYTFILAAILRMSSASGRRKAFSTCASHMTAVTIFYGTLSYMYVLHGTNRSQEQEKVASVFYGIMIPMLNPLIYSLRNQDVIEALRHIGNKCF
In short: as §1

[5] = target: T5, UniProt Q8VGJ3
T5 sequence (whole entry): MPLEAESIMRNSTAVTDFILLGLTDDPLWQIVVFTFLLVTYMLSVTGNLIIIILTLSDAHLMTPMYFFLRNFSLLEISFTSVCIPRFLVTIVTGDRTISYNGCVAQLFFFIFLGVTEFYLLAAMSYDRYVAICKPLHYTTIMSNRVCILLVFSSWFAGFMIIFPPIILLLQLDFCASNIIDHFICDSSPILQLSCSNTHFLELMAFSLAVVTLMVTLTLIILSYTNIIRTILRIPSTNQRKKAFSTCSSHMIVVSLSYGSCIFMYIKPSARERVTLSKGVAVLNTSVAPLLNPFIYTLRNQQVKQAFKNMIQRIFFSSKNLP
In short: as §1

[6] = target: T6, UniProt Q8VGL0
T6 sequence (whole entry): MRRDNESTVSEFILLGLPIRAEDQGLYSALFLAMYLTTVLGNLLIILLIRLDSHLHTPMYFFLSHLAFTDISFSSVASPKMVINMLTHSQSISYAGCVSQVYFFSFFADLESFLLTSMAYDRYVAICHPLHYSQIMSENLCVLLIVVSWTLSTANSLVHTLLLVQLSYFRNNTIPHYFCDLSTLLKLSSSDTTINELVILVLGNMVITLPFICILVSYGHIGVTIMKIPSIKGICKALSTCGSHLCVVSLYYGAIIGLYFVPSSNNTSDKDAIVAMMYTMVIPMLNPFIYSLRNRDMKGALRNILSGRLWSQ
In short: as §1

[7] = target: UniProt Q8VG28
In short: as §1

[8] = target: T7, UniProt Q8VG49
T7 sequence (whole entry): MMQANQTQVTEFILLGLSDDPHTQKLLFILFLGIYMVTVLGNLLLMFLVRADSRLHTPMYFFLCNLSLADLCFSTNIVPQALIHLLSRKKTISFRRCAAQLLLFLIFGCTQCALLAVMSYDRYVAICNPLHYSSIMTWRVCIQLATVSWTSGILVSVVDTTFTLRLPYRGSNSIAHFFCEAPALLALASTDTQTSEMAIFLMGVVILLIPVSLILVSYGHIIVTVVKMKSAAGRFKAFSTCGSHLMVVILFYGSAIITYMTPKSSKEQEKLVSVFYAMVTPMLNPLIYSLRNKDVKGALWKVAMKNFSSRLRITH
In short: as §1

[9] = target: T8, UniProt Q8VG77
T8 sequence (whole entry): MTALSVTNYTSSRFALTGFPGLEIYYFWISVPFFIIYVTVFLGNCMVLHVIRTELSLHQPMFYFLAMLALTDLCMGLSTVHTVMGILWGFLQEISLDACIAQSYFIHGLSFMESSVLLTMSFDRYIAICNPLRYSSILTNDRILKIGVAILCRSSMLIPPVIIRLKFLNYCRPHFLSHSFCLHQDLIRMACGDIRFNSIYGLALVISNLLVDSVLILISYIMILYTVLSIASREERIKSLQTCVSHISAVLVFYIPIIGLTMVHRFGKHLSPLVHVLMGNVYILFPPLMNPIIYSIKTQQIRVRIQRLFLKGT
In short: as §1

[10] = target: T9, UniProt Q8VG96
T9 sequence (whole entry): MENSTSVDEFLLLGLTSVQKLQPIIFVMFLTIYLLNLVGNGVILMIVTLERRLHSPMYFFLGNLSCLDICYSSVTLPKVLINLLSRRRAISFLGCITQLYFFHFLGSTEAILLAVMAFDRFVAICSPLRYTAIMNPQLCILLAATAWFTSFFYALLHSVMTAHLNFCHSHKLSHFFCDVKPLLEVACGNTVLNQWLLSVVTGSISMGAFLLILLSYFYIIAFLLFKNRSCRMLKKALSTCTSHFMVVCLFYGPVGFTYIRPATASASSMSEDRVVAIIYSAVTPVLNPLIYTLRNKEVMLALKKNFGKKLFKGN
In short: as §1

[11] = target: T10, UniProt Q8VGD7
T10 sequence (whole entry): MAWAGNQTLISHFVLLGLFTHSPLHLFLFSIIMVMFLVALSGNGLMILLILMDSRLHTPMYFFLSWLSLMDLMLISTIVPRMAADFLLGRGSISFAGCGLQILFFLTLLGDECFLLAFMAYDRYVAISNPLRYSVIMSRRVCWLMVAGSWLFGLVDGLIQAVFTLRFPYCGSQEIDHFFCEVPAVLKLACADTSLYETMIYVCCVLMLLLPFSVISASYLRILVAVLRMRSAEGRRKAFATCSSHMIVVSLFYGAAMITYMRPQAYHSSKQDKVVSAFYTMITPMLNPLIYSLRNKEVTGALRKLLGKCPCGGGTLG
In short: as §1

[12] = target: UniProt Q8VGE3
In short: as §1

[13] = target: T11, UniProt Q8VGH1
T11 sequence (whole entry): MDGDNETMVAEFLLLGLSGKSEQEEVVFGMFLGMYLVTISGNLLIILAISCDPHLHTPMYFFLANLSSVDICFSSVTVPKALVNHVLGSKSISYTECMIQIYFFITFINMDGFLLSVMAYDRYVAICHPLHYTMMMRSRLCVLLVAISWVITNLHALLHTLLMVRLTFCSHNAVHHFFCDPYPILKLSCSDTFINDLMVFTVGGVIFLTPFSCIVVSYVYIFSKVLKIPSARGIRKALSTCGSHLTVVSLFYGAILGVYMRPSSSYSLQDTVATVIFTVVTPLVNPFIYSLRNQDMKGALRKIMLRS
In short: as §1

[14] = target: T12, UniProt Q8VGJ1
T12 sequence (whole entry): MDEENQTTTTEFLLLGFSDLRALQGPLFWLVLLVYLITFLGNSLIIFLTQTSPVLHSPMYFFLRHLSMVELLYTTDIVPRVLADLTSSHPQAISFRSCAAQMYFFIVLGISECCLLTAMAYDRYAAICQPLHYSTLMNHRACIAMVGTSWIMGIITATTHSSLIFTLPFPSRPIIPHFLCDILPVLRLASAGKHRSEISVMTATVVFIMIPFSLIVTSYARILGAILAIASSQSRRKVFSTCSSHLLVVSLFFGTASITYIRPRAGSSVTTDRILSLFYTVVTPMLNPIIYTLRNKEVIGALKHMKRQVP
In short: as §1

[15] = target: T13, UniProt Q8VGJ5
T13 sequence (whole entry): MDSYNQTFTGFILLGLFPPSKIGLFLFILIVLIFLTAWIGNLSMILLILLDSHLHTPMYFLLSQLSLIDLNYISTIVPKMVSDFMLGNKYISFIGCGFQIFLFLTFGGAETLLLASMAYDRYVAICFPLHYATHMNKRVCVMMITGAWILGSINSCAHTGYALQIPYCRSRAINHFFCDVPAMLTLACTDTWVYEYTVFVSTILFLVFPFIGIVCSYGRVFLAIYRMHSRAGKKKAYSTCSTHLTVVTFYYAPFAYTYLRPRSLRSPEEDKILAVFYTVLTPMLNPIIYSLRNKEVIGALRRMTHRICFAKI
In short: as §1

[16] = target: UniProt Q8VGK6
In short: as §1

[17] = target: T14, UniProt Q8VGL7
T14 sequence (whole entry): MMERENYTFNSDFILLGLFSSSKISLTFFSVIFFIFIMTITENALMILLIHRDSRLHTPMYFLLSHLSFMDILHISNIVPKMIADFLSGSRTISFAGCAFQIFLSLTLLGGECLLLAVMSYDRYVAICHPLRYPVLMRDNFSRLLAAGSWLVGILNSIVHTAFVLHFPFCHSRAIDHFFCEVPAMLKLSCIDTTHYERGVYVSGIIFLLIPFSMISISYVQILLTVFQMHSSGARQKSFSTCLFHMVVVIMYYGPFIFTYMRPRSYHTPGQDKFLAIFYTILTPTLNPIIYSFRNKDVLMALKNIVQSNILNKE
In short: as §1

[18] = target: T15, UniProt Q8VGM2
T15 sequence (whole entry): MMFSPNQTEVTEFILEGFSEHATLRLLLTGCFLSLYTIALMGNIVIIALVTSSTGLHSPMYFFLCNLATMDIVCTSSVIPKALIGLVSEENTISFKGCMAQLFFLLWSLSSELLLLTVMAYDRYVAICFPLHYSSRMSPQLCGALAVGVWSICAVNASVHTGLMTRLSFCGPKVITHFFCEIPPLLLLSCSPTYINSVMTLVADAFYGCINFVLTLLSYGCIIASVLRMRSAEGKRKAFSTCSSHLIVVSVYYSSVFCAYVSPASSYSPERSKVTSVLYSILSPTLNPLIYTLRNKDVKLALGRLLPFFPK
In short: as §1

[19] = target: T16, UniProt Q8VGP6
T16 sequence (whole entry): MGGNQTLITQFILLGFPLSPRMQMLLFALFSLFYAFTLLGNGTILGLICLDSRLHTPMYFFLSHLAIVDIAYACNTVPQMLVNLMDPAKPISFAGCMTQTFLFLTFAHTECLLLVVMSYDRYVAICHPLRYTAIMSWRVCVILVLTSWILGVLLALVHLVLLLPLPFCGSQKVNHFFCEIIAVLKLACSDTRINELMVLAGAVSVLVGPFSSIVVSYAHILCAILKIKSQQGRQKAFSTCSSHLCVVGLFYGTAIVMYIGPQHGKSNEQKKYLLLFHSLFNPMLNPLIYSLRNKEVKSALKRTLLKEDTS
In short: as §1

[20] = target: T17, UniProt Q8VGQ3
T17 sequence (whole entry): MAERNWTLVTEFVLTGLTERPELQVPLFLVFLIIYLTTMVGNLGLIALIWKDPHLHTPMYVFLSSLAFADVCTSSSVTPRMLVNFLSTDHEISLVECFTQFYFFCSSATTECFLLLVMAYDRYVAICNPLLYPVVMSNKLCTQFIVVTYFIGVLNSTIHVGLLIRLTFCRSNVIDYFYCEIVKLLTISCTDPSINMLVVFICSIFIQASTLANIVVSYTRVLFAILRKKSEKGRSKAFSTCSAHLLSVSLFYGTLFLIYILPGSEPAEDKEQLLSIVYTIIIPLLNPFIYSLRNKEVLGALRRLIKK
In short: as §1

Measured: odorant receptor agonist call

CC(C)=CCCC(C)=CC=O
inactive: [1] | [2] | [3] | [4] | [5] | [6]

CC(C)CC(=O)O
inactive: [7] | [1] | [2] | [3] | [4] | [5] | [6]

CC1COCc2cc3c(cc21)C(C)(C)C(C)C3(C)C (configuration not stated)
active: [3] | [5]
inactive: [1] | [2] | [4] | [6]

CC1CCC(C(C)C)C(O)C1 (configuration not stated)
inactive: [4]

CC1=CCC(C(C)(C)O)CC1 (configuration not stated)
inactive: [4]

C=C(C)C1CC=C(C)C(=O)C1 (configuration not stated)
active: [10] | [4] | [12] | [13] | [15] | [16]
inactive: all other assays above

CC12CCC(C1)C(C)(C)C2=O (configuration not stated)
active: [15] | [6] | [17]
not listed: [1] | [2] | [3] | [5] | [7] | [12] | [16]
inactive: all other assays above

CCCCCCCCCCC=O
inactive: [4]

CCCCCCCCCC=O
not listed: [7] | [12] | [16]
inactive: all other assays above
